Primary screen of a compound library

Amino acid sequences for entries named in this document (tags omitted).
UniProt I6X8D2, whole entry: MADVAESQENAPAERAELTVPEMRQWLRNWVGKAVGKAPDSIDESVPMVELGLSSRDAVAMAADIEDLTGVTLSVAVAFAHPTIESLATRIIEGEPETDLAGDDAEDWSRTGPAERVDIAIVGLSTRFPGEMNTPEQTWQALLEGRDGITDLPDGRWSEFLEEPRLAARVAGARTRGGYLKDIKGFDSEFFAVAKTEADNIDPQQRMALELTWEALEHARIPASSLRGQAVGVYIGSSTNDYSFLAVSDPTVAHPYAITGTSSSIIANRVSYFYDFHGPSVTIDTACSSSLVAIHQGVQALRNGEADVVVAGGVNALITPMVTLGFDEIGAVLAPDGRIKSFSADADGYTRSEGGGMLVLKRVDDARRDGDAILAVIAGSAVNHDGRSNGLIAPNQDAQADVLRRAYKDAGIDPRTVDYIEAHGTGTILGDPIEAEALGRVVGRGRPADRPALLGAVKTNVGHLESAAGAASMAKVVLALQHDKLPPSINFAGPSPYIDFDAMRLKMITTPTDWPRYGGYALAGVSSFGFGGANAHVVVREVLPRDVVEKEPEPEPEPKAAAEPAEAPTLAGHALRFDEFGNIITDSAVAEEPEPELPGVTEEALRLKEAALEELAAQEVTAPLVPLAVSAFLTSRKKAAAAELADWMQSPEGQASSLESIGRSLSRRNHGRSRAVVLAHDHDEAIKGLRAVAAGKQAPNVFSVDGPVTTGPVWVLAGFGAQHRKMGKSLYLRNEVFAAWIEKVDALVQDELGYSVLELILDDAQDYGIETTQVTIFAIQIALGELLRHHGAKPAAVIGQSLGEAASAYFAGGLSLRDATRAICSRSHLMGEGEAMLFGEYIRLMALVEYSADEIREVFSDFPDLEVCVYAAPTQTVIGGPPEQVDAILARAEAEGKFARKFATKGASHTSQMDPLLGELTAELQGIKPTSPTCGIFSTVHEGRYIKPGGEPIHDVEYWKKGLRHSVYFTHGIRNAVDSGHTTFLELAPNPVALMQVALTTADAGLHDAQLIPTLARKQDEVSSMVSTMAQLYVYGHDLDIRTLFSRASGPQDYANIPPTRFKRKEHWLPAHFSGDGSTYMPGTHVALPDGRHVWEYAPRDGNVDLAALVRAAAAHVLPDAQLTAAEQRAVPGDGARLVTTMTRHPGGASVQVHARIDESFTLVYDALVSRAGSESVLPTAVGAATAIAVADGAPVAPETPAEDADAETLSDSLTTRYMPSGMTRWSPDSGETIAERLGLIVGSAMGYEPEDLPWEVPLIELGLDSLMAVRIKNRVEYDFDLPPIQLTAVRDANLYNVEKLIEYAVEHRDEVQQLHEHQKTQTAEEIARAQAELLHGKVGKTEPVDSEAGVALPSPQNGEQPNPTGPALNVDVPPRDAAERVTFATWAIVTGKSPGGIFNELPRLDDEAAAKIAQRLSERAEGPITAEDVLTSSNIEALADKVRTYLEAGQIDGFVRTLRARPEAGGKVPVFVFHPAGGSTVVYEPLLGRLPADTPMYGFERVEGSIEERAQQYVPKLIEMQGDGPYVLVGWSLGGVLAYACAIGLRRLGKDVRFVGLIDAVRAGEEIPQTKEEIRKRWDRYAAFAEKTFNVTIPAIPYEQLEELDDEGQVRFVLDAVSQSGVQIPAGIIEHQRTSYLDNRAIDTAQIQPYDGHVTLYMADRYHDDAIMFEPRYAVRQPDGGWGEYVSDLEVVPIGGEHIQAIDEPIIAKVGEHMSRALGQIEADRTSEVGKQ

Results are given as percent effect.
The controls that fix the scale are not given in the record; negative values are as filed.
This is an unselected part of the compounds tested.

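Enzyme assay of the thioesterase domain of polyketide synthase 13; the read-out is not stated. Target: Polyketide synthase Pks13, Mycobacterium tuberculosis (UniProt I6X8D2). Compounds at 30 µM. Higher reads as stronger inhibition (inferred from which compounds were picked for retests). Of about 67,000 compounds tested this way, about 300 (0.46%) reached 50% or more in at least one test.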

CNC(=O)CN1CCC2(CC1)C[C@@H](O)[C@H](c1ccccc1)NC2=O gave 4.342%.
Cc1nn(CN(Cc2ccsc2)C2CC2)c(=O)c2noc(C)c12 gave -19.67%.
Cc1ccc(NC(=O)N2CCCC(O)C2)c(Br)c1 (stereo not drawn) gave -31.97%.
COc1ccc2cc(C(=O)N3CC[C@H](CO)[C@H](O)C3)n(C)c2c1 gave -3.649%.
c1cc(CNCC2Cn3nncc3CO2)co1 (stereo not drawn) gave -28.46%.
COc1ccc2c(c1)OCC(Cc1cnc(N)c(C)c1)C2 (stereo not drawn) gave -15.2%.
CN(C)C(=O)CN1CCCC1c1nccnc1Nc1ccccn1 (stereo not drawn) gave 22.21%.
O=C([C@@H]1CCO[C@@H]2CCN(Cc3ccc(F)cc3)C[C@H]21)N1CCCCO1 gave 5.385%.
CNC(=O)c1cccc(CN2CCC(N(C)Cc3ncc(C)o3)C2)c1 (stereo not drawn) gave -7.302%.
CO[C@H]1CO[C@@]2(CCCN(C(=O)C3=CCCCC3)C2)C1 gave -9.365%.
Cc1ccc(S(=O)(=O)Nc2ccc(N3CCSCC3)c(C(=O)O)c2)s1 gave -13.51%.
O=C1CC(c2ccccc2)c2c(n3ccsc3nc2=O)N1 (stereo not drawn) gave -14.83%.
CCCN1CCN(C(=O)c2ccc(Cl)cn2)[C@H]2CS(=O)(=O)C[C@H]21 gave 5.706%.
CN(Cc1nccn1C)C(CO)c1cccc(Br)c1 (stereo not drawn) gave -7.152%.
Cc1ncncc1C(=O)N1C[C@H]2CC[C@@H]1CN(C(=O)c1ccncc1)C2 gave -30.27%.
COCc1nc(C(=O)N2CCCC2c2c(C)nn(C)c2C)cs1 (stereo not drawn) gave -4.952%.
CC(NC(=O)c1cccc(CN2CCN(C)CC2)c1)c1ccccn1 (stereo not drawn) gave -17.88%.
CC(C)SCC(=O)N1CCCn2nc(C(=O)Nc3ccccc3)cc2C1 gave -22.82%.
CCc1nc(CN(CCc2ccccc2)C2CCN(C)CC2)no1 gave -2.897%.
CN1CC(c2ccccc2)CC2(CCN(C(=O)c3ccccc3)CC2)C1 (stereo not drawn) gave -3.592%.
CCc1[nH]c2c(CNc3cc(C)nc(NC)n3)cc(C)cc2c1C gave 5.905%.
CN(C)c1ccc(C(=O)N2CCC(c3cc4cnccc4[nH]3)CC2)cc1 gave -17.34%.
O=C(NCCNc1cnccn1)c1scnc1Cl gave -13.53%.
O=C(CO)N1CCC(c2ccnc(Nc3cc(C(F)(F)F)ccn3)n2)C1 (stereo not drawn) gave -6.508%.
Cc1cc(Cl)c2c(c1)C1(NC(=O)c3cccnc3N1)C(=O)N2 (stereo not drawn) gave 6.587%.
Cc1nc(CN2CCC(CNC(=O)CCC3CCCC3)CC2)oc1C gave -32.86%.
Cc1c(NC(C)C(C)C)cccc1C(=O)NCc1nnc(C)n1C (stereo not drawn) gave -7.587%.
CCOCCNC(=O)c1ccn(S(=O)(=O)c2ccc(C)cc2)c1 gave -18.32%.
CSc1ccsc1C(=O)N1CCN(CC(C)(C)O)CC1 gave -17.89%.
Cc1[nH]ncc1C(C)NCc1ccc(F)cc1 (stereo not drawn) gave -2.58%.
COC(=O)c1cc(C(=O)N2CCc3ccc(F)cc3C2C)ccn1 (stereo not drawn) gave -24.83%.
Cc1ccc(S(=O)(=O)n2ccn(C(=O)CC(C)C)c2=O)cc1 gave 10.78%.
Cc1ccc2[nH]c(CO[C@H]3CN(C(=O)C4CC4)C[C@H]3F)nc2c1 gave 17.26%.
COc1ccccc1CCN(C)Cc1nc(N)nc(N(C)C)n1 gave -33.81%.
COc1ccc(C(=O)N2CCCS2(=O)=O)cc1OC gave -11.23%.
Cc1ccoc1C(=O)N1C[C@H]2CCC[C@@]2(COCc2ccncc2)C1 gave -17.81%.
Cc1ccc(CN2Cc3c(cnn3C)C(COCC3CC3)C2)s1 (stereo not drawn) gave -30.82%.

Data taken from ChEMBL document CHEMBL3988442, “University of Dundee, Small-Polar-MMV Screening Library” (2021).